# The shares of active, inactive and inconclusive entries below differ from those in the screen. Where the call is inconclusive, the potency comes from a doubtful curve fit. Activity calls are given as the source filed them. How the source made its calls: active means hit-call score of the fitted dose curve at least 0.9, where 1 is the maximum; inconclusive means response in the unintended direction; inactive means score below 0.9.
# Test: TOX21_p53_BLA_p4_viability: Viability Assessment in the Tox21 HCT-116 p53 Agonism Beta-lactamase Assay, Phase 4 (AID 2283597);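 further: hits lower the luminescence signal meaning cytotoxicity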
# How it was run: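 HCT116 p53-bla cells (4000/well) rested 5 h at 37C, then received compounds in DMSO (217-fold dilution) for 16 h at 37C, 5% CO2. CellTiter-Glo was added after the CCF4-AM read, and luminescence was read after 30 min at room temperature.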
Compound,AC50,outcome
CC(C)(C)OCC1CO1 (stereo unspecified),inconclusive: 0.00451 µM,–
CN1c2c(nc(N)[nH]c2=O)NCC1CNc1ccc(C(=O)NC(CCC(=O)O)C(=O)O)cc1 (stereo unspecified),inconclusive: 23 µM,–
NC(=O)[C@H]1O[C@@H](O)[C@H](O)[C@@H](O)[C@@H]1O,–,inactive
Cc1occc1S,–,inactive
CC(=O)OCC1=C(C(=O)O)N2C(=O)[C@@H](NC(=O)Cc3cccs3)[C@H]2SC1,inconclusive: 23 µM,–
CCCc1nc2c(C)cc(-c3nc4ccccc4n3C)cc2n1Cc1ccc(-c2ccccc2C(=O)O)cc1,inconclusive: 5.53e-06 µM,–
CCCCS,inconclusive: 0.0952 µM,–
CC(C)COC(=O)c1ccc(N)cc1,–,inactive
Cc1ccccc1C#N,inconclusive: 45.2 µM,–
N#Cc1c(N(CC(=O)O)CC(=O)O)sc(C(=O)O)c1CC(=O)O,inconclusive: 23 µM,–
NS(=O)(=O)c1cc2c(cc1Cl)NC(C1CC3C=CC1C3)NS2(=O)=O (stereo unspecified),–,inactive
CC1(C)C[C@@H]1C(=O)N/C(=C\CCCCSC[C@H](N)C(=O)O)C(=O)O,inconclusive: 23 µM,–
CN(C)CCN(Cc1ccccc1)c1ccccn1,inconclusive: 9.41 µM,–
Nc1ccc(N=Nc2ccc(N)cc2)cc1,inconclusive: 23.5 µM,–
C#C[C@]1(O)CC[C@H]2[C@@H]3CCC4=CC(=O)CC[C@@H]4[C@H]3C(=C)C[C@@]21CC,inconclusive: 23 µM,–
CC[C@@H](C(=O)[C@@H](C)[C@@H](O)[C@H](C)[C@@H]1O[C@@H]([C@@H](CC)C(=O)O)CC[C@@H]1C)[C@H]1O[C@]2(C=C[C@@H](O)[C@]3(CC[C@@](C)([C@H]4CC[C@](O)(CC)[C@H](C)O4)O3)O2)[C@H](C)C[C@@H]1C,inconclusive: 5.9e-05 µM,–
OC[C@@H](O)C(O)[C@H](O)CO,inconclusive: 0.000101 µM,–
CC(Cc1cccc(C(F)(F)F)c1)NCCOC(=O)c1ccccc1 (stereo unspecified),–,inactive
CCCCNC1CC(C)(C)NC(C)(C)C1,–,inactive
C1CCN2C[C@@H]3C[C@@H](CN4CCCC[C@@H]34)[C@H]2C1,–,inactive

# In the list so far, these have a thiophene ring, fused or not:
Compound,AC50,outcome
CC(=O)OCC1=C(C(=O)O)N2C(=O)[C@@H](NC(=O)Cc3cccs3)[C@H]2SC1,inconclusive: 23 µM,–
N#Cc1c(N(CC(=O)O)CC(=O)O)sc(C(=O)O)c1CC(=O)O,inconclusive: 23 µM,–

# Additional results follow:

Compound,AC50,outcome
CCN1CC(CCN2CCOCC2)C(c2ccccc2)(c2ccccc2)C1=O (stereo unspecified),–,inactive
CC(C)=C1CC[C@@H](C)CC1=O,–,inactive
CCC(=O)OC/C=C/c1ccccc1,–,inactive
O=C1OC(=O)C2CC=CCC12 (stereo unspecified),inconclusive: 46.2 µM,–
Cc1cc2cc3c(C)cc(=O)oc3c(C)c2o1,inconclusive: 19.2 µM,–
NC(=O)N[C@@H](CCC(=O)O)C(=O)O,inconclusive: 23 µM,–
C=CC(=O)OCCOCC(CC)(COCCOC(=O)C=C)COCCOC(=O)C=C,inconclusive: 100 µM,–
CN1CCN(c2c(F)cc3c(=O)c(C(=O)O)cn4c3c2SCC4)CC1,inconclusive: 23 µM,–
NS(=O)(=O)c1ccc(Cl)c(S(N)(=O)=O)c1,–,inactive
C=CC(=O)OCCOC(=O)CCC(=O)O,inconclusive: 46.1 µM,–
CCC(C)(C)CC,–,inactive
CC(C)OC(=O)CCC(=O)OC(C)C,inconclusive: 46.1 µM,–
CN(C)CCC[C@@]1(c2ccc(F)cc2)OCc2cc(C#N)ccc21,inconclusive: 23 µM,–
O=P(O)(O)OC(Cn1cncn1)(Cn1cncn1)c1ccc(F)cc1F,inconclusive: 23 µM,–
CC(=O)OCC(=O)[C@@]1(O)CC[C@H]2[C@@H]3CCC4=CC(=O)CC[C@]4(C)C3=CC[C@@]21C,inconclusive: 23 µM,–
CCO/C([O-])=N/c1c[n+](N2CCOCC2)no1,inconclusive: 10.3 µM,–
CN1CCN(C(c2ccccc2)c2ccccc2)CC1,inconclusive: 18.8 µM,–
CCC(C)(CN(C)C)OC(=O)c1ccccc1 (stereo unspecified),–,inactive
NC(=O)Cc1cccc2ccccc12,inconclusive: 15.3 µM,–
C=CC(=O)OCC1CCCO1 (stereo unspecified),inconclusive: 15.6 µM,–

# Test: TOX21_p53_BLA_p5_viability: Viability Assessment in the Tox21 HCT-116 p53 Agonism Beta-lactamase Assay, Phase 5 (AID 2283600)
# How it was run: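 Cells were plated at 4000/well, rested 5 h at 37C, then given compounds in DMSO (217-fold dilution) for 16 h at 37C, 5% CO2. Following the CCF4-AM beta-lactamase read, CellTiter-Glo was added and luminescence was read after 30 min at room temperature.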
Compound,outcome,AC50
CC(C)(C)OCC1CO1 (stereo unspecified),inactive,–
CN1c2c(nc(N)[nH]c2=O)NCC1CNc1ccc(C(=O)NC(CCC(=O)O)C(=O)O)cc1 (stereo unspecified),inactive,–
NC(=O)[C@H]1O[C@@H](O)[C@H](O)[C@@H](O)[C@@H]1O,inactive,–
Cc1occc1S,–,inconclusive: 85.6 µM
CC(=O)OCC1=C(C(=O)O)N2C(=O)[C@@H](NC(=O)Cc3cccs3)[C@H]2SC1,inactive,–
CCCc1nc2c(C)cc(-c3nc4ccccc4n3C)cc2n1Cc1ccc(-c2ccccc2C(=O)O)cc1,–,inconclusive: 23 µM
CCCCS,inactive,–
CC(C)COC(=O)c1ccc(N)cc1,inactive,–
Cc1ccccc1C#N,–,inconclusive: 0.0934 µM
N#Cc1c(N(CC(=O)O)CC(=O)O)sc(C(=O)O)c1CC(=O)O,–,inconclusive: 23 µM
NS(=O)(=O)c1cc2c(cc1Cl)NC(C1CC3C=CC1C3)NS2(=O)=O (stereo unspecified),inactive,–
CC1(C)C[C@@H]1C(=O)N/C(=C\CCCCSC[C@H](N)C(=O)O)C(=O)O,inactive,inconclusive: 0.000104 µM
CN(C)CCN(Cc1ccccc1)c1ccccn1,–,inconclusive: 7.53 µM
Nc1ccc(N=Nc2ccc(N)cc2)cc1,–,inconclusive: 2.52 µM
C#C[C@]1(O)CC[C@H]2[C@@H]3CCC4=CC(=O)CC[C@@H]4[C@H]3C(=C)C[C@@]21CC,–,inconclusive: 23 µM
CC[C@@H](C(=O)[C@@H](C)[C@@H](O)[C@H](C)[C@@H]1O[C@@H]([C@@H](CC)C(=O)O)CC[C@@H]1C)[C@H]1O[C@]2(C=C[C@@H](O)[C@]3(CC[C@@](C)([C@H]4CC[C@](O)(CC)[C@H](C)O4)O3)O2)[C@H](C)C[C@@H]1C,–,inconclusive: 23 µM
OC[C@@H](O)C(O)[C@H](O)CO,–,inconclusive: 42.6 µM
CC(Cc1cccc(C(F)(F)F)c1)NCCOC(=O)c1ccccc1 (stereo unspecified),inactive,–
CCCCNC1CC(C)(C)NC(C)(C)C1,–,inconclusive: 46.1 µM
C1CCN2C[C@@H]3C[C@@H](CN4CCCC[C@@H]34)[C@H]2C1,–,inconclusive: 10.3 µM

Compound,outcome,AC50
CCN1CC(CCN2CCOCC2)C(c2ccccc2)(c2ccccc2)C1=O (stereo unspecified),–,inconclusive: 23 µM
CC(C)=C1CC[C@@H](C)CC1=O,–,inconclusive: 46.1 µM
CCC(=O)OC/C=C/c1ccccc1,–,inconclusive: 0.98 µM
O=C1OC(=O)C2CC=CCC12 (stereo unspecified),inactive,–
Cc1cc2cc3c(C)cc(=O)oc3c(C)c2o1,–,inconclusive: 10.3 µM
NC(=O)N[C@@H](CCC(=O)O)C(=O)O,–,inconclusive: 0.403 µM
C=CC(=O)OCCOCC(CC)(COCCOC(=O)C=C)COCCOC(=O)C=C,inactive,–
CN1CCN(c2c(F)cc3c(=O)c(C(=O)O)cn4c3c2SCC4)CC1,–,inconclusive: 3.46 µM
NS(=O)(=O)c1ccc(Cl)c(S(N)(=O)=O)c1,–,inconclusive: 43.4 µM
C=CC(=O)OCCOC(=O)CCC(=O)O,–,inconclusive: 46.1 µM
CCC(C)(C)CC,–,inconclusive: 47.9 µM
CC(C)OC(=O)CCC(=O)OC(C)C,inactive,–
CN(C)CCC[C@@]1(c2ccc(F)cc2)OCc2cc(C#N)ccc21,–,inconclusive: 0.00408 µM
O=P(O)(O)OC(Cn1cncn1)(Cn1cncn1)c1ccc(F)cc1F,inactive,–
CC(=O)OCC(=O)[C@@]1(O)CC[C@H]2[C@@H]3CCC4=CC(=O)CC[C@]4(C)C3=CC[C@@]21C,inactive,–
CCO/C([O-])=N/c1c[n+](N2CCOCC2)no1,inactive,–
CN1CCN(C(c2ccccc2)c2ccccc2)CC1,–,inconclusive: 10.3 µM
CCC(C)(CN(C)C)OC(=O)c1ccccc1 (stereo unspecified),–,inconclusive: 18 µM
NC(=O)Cc1cccc2ccccc12,inactive,–
C=CC(=O)OCC1CCCO1 (stereo unspecified),–,inconclusive: 46.1 µM

# In another format: entries from further up
Compound	outcome	AC50
CCCCNC1CC(C)(C)NC(C)(C)C1	–	inconclusive: 46.1 µM
C1CCN2C[C@@H]3C[C@@H](CN4CCCC[C@@H]34)[C@H]2C1	–	inconclusive: 10.3 µM
CCN1CC(CCN2CCOCC2)C(c2ccccc2)(c2ccccc2)C1=O (stereo unspecified)	–	inconclusive: 23 µM
CC(C)=C1CC[C@@H](C)CC1=O	–	inconclusive: 46.1 µM
CCC(=O)OC/C=C/c1ccccc1	–	inconclusive: 0.98 µM
O=C1OC(=O)C2CC=CCC12 (stereo unspecified)	inactive	–
Cc1cc2cc3c(C)cc(=O)oc3c(C)c2o1	–	inconclusive: 10.3 µM
NC(=O)N[C@@H](CCC(=O)O)C(=O)O	–	inconclusive: 0.403 µM
C=CC(=O)OCCOCC(CC)(COCCOC(=O)C=C)COCCOC(=O)C=C	inactive	–
CN1CCN(c2c(F)cc3c(=O)c(C(=O)O)cn4c3c2SCC4)CC1	–	inconclusive: 3.46 µM
NS(=O)(=O)c1ccc(Cl)c(S(N)(=O)=O)c1	–	inconclusive: 43.4 µM
C=CC(=O)OCCOC(=O)CCC(=O)O	–	inconclusive: 46.1 µM
CCC(C)(C)CC	–	inconclusive: 47.9 µM
CC(C)OC(=O)CCC(=O)OC(C)C	inactive	–
CN(C)CCC[C@@]1(c2ccc(F)cc2)OCc2cc(C#N)ccc21	–	inconclusive: 0.00408 µM
O=P(O)(O)OC(Cn1cncn1)(Cn1cncn1)c1ccc(F)cc1F	inactive	–
CC(=O)OCC(=O)[C@@]1(O)CC[C@H]2[C@@H]3CCC4=CC(=O)CC[C@]4(C)C3=CC[C@@]21C	inactive	–
CCO/C([O-])=N/c1c[n+](N2CCOCC2)no1	inactive	–
CN1CCN(C(c2ccccc2)c2ccccc2)CC1	–	inconclusive: 10.3 µM
CCC(C)(CN(C)C)OC(=O)c1ccccc1 (stereo unspecified)	–	inconclusive: 18 µM

# — PubChem BioAssay (EPA / NIEHS)
